Measured values as given in the supplement of paper PMC10338343.
± gives the standard deviation. The list shows a part of the results, in another mix than the full data. The uncertainty is large for many entries. The list shows a part of the results.

Assays:
[1] = tested on: MILI (PIWIL2) piRISC loaded with L1MC piRNA (26 nt); assay: pre-steady-state target cleavage rate (min^-1); higher = faster piRNA-guided slicing of the target; conditions: guide: L1MC piRNA 5'p-UAACUAAAUACUAUGCAAGCUGUAGG
Procedure, shortened: (§1)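 A burst-and-steady-state fit was used to obtain the pre-steady-state cleavage rate. The input data were sequencing reads of uncleaved targets, normalised to depth and to weakly complementary targets, from a […] transcribed, DNA-blocked target RNA library mixed with 1 nM active affinity-purified piRISC holding one synthetic guide, with or without 500 nM GTSF1 partner protein, in HEPES–potassium acetate buffer at 33 °C for 0–8 or 0–960 min. Three trials were pooled and k3 was capped at 0.0001 min^-1.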

[2] = tested on: MIWI (PIWIL1) piRISC loaded with L1MC piRNA (30 nt); assay: as above; conditions: guide: L1MC piRNA 5'p-UAACUAAAUACUAUGCAAGCUGUAGGUCCU
Procedure, shortened: as §1

[3] = tested on: EfPiwi piRISC loaded with L1MC piRNA (26 nt); assay: pre-steady-state target cleavage rate (min^-1); guide: L1MC piRNA 5'p-UAACUAAAUACUAUGCAAGCUGUAGG; MIWI and MILI are mouse PIWI proteins and EfPiwi is from a freshwater sponge; tags in brackets are library labels; higher = faster piRNA-guided slicing of the target
Procedure, shortened: as §1

[4] = auxiliary factor: 500 nM mouse GTSF1
[5] = auxiliary factor: none (no GTSF1)
[6] = auxiliary factor: 500 nM Ephydatia muelleri Gtsf1

Sequence	pre-steady-state target cleavage rate [1, 4]	pre-steady-state target cleavage rate [1, 5]	pre-steady-state target cleavage rate [2, 4]	pre-steady-state target cleavage rate [2, 5]	pre-steady-state target cleavage rate [3, 6]	pre-steady-state target cleavage rate ([3]; auxiliary factor: none (no Gtsf1))
UCCUGGAUCAGCUUGCAUAGUUAUUACAAA	0.00236 ± 0.005	0.00118 ± 0.0042	0.000855 ± 0.013	0.00142 ± 0.005	0.000465 ± 0.008	
UCCUGGAUGUCGAACGUAAGUUUAUAGUUA	0.000209 ± 0.033	0.000272 ± 0.022	0.000351 ± 0.018	0.000199 ± 0.027	0.000122 ± 0.022	
UCCUGGAUGUCGUUGCAUAGUAUUUACUUA	0.00161 ± 0.0077	0.000647 ± 0.011	0.00369 ± 0.0045	0.00155 ± 0.0054	0.000297 ± 0.012	
UCCUGGAUGUGCUUGCAUAGAAUAUAGUUA	0.00814 ± 0.0043	0.00119 ± 0.006	0.00334 ± 0.0045	0.00175 ± 0.005		0.000129 ± 0.069
UCCUCGUACAGCUUGCAUAGUUUUUAGUUA	0.0651 ± 0.008	0.00493 ± 0.0018	0.478 ± 0.013	0.0475 ± 0.011	0.0267 ± 0.0072	
UCCUCCUUCAGCUUGCUUAGUAUUUAGUUA	0.286 ± 0.015	0.00762 ± 0.002	1.31 ± 0.054	0.0243 ± 0.0053	0.0651 ± 0.022	
UCCUGGAUCAGCUUGCAUAGAUUUAGUUA	0.00178 ± 0.0063	0.000703 ± 0.0073	0.00212 ± 0.0062	0.0012 ± 0.0054	0.00198 ± 0.0033	
UCCUGGAUGUCGAACCAAUAGUAUUUAGUUA	0.000682 ± 0.0053	0.000782 ± 0.0049	0.000194 ± 0.015	0.000288 ± 0.012	0.000188 ± 0.015	
UCCUGGAUGAGCUUGCAUAGAUUUUAGUAA	0.0025 ± 0.0045	0.00178 ± 0.004	0.00253 ± 0.0042	0.00173 ± 0.0041	0.000662 ± 0.0065	
UCCUGGAUGUGCUUGCAUAGUAUAAUGAAA	0.00179 ± 0.0054	0.000385 ± 0.016	0.00121 ± 0.008	0.00132 ± 0.0056	0.000631 ± 0.0063	
UCCUGGAUGUCGUUGCAUAGUAUAUUGUUA	0.0458 ± 0.017	0.00227 ± 0.0041	0.000315 ± 0.031	0.00107 ± 0.0064	0.000227 ± 0.022	
UCCUCUCUACAGCUUGCAUAGUAUUUAGUUA	0.28 ± 0.022	0.00895 ± 0.0022	0.797 ± 0.038	0.0529 ± 0.0081	0.0164 ± 0.006	
UCCUGGAUGUGCUUGCACUAGUAUUUAGUUA	0.00384 ± 0.0046	0.00137 ± 0.0039	0.00266 ± 0.0046	0.0012 ± 0.0071	0.000325 ± 0.014	
UCCUGGAUGUGCUUGCAAUCUAUUUAGUAA	0.000635 ± 0.011	0.000421 ± 0.013	0.000483 ± 0.017	0.000178 ± 0.02	0.000233 ± 0.016	
UCCUGGAUCAGCUUGCAUACAUAAAUCAAA [g12:g22:cont:t1A]	0.00115 ± 0.0082	0.000205 ± 0.011	0.00195 ± 0.0061	0.000409 ± 0.012	0.00121 ± 0.008	
UCCUGGAUGUCGAAGCAUAGUUUUAGUUA	0.000213 ± 0.035	0.000403 ± 0.0088	0.00024 ± 0.043	0.00108 ± 0.0043	0.00044 ± 0.0092	
UCCUGGAUCAGCUUGCAUAGAUAUUUCAAA		0.000548 ± 0.0077		0.000217 ± 0.012	0.000335 ± 0.0091	
UCCUGCUACAGGUUCCAUAGUAUUUAGUUA		0.00209 ± 0.0035		0.00132 ± 0.005	0.00222 ± 0.0021	
UCCUGGAUGUCGUUGCAUAGUAUUUAGGUUA		0.00289 ± 0.0046		0.00139 ± 0.0058	0.000556 ± 0.0077	

Shown in CSV form: part of the list above.
Sequence,"pre-steady-state target cleavage rate [1, 4]","pre-steady-state target cleavage rate [1, 5]","pre-steady-state target cleavage rate [2, 4]","pre-steady-state target cleavage rate [2, 5]","pre-steady-state target cleavage rate [3, 6]",pre-steady-state target cleavage rate ([3]; auxiliary factor: none (no Gtsf1))
UCCUGGAUGAGCUUGCAUAGAUUUUAGUAA,0.0025 ± 0.0045,0.00178 ± 0.004,0.00253 ± 0.0042,0.00173 ± 0.0041,0.000662 ± 0.0065,
UCCUGGAUGUGCUUGCAUAGUAUAAUGAAA,0.00179 ± 0.0054,0.000385 ± 0.016,0.00121 ± 0.008,0.00132 ± 0.0056,0.000631 ± 0.0063,
